± gives the standard deviation of the averaged measurements. Only a part is listed here, and it is no random draw. Small differences around the control level are noise.

Amino acid sequences for entries named in this document (tags omitted). A change or cut given only in a name is not applied to a line headed by its entry.
UniProt Q969U7: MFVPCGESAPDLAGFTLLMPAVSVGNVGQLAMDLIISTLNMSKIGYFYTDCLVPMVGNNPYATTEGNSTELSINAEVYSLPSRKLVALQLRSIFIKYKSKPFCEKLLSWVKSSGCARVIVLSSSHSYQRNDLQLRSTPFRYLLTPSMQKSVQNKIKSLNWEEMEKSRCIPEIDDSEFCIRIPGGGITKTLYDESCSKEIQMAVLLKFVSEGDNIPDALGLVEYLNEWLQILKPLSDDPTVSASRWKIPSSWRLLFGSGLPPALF
UniProt Q8TCD5: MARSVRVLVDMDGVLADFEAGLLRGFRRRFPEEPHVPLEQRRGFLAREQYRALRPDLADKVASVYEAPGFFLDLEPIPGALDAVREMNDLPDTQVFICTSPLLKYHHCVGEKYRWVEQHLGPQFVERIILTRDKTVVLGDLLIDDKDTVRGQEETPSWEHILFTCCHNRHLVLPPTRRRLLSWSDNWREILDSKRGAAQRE
UniProt Q96AD5: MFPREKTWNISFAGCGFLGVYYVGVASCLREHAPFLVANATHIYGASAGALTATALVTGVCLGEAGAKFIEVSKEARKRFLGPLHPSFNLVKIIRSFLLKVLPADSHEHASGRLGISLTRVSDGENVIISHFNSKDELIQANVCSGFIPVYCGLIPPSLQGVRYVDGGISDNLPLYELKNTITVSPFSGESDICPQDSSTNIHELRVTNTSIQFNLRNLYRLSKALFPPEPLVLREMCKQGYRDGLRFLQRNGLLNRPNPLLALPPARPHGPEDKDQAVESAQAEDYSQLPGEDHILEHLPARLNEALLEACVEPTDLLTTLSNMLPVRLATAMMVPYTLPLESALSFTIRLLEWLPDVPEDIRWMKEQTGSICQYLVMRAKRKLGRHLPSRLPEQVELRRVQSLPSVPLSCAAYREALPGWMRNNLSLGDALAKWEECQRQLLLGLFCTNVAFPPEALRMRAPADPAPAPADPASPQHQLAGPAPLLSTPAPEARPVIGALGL
UniProt Q8WU79: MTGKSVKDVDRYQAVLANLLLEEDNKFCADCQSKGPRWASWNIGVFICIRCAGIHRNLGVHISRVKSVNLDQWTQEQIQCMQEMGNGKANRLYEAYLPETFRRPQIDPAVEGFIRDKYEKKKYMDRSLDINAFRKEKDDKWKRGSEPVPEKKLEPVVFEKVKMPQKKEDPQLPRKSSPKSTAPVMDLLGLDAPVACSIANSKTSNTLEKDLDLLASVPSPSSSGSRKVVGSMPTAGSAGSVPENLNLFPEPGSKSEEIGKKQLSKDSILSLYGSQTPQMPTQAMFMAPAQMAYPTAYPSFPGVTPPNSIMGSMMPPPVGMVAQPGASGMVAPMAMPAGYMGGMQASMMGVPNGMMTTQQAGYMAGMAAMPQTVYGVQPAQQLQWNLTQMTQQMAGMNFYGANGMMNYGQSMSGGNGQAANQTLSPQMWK
UniProt Q92759: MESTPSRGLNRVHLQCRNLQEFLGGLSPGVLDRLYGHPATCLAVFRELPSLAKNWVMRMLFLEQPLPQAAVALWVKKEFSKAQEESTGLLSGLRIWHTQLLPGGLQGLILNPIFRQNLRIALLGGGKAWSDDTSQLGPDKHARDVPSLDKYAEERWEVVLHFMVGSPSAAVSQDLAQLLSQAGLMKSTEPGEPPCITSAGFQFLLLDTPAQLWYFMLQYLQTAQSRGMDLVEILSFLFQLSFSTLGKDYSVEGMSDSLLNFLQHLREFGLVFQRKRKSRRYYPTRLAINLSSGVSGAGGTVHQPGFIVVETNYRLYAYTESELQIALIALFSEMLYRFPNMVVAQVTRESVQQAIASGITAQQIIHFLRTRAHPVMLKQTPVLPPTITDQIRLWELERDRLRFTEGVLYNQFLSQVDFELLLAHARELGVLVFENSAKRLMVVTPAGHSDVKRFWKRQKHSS
UniProt Q969F9: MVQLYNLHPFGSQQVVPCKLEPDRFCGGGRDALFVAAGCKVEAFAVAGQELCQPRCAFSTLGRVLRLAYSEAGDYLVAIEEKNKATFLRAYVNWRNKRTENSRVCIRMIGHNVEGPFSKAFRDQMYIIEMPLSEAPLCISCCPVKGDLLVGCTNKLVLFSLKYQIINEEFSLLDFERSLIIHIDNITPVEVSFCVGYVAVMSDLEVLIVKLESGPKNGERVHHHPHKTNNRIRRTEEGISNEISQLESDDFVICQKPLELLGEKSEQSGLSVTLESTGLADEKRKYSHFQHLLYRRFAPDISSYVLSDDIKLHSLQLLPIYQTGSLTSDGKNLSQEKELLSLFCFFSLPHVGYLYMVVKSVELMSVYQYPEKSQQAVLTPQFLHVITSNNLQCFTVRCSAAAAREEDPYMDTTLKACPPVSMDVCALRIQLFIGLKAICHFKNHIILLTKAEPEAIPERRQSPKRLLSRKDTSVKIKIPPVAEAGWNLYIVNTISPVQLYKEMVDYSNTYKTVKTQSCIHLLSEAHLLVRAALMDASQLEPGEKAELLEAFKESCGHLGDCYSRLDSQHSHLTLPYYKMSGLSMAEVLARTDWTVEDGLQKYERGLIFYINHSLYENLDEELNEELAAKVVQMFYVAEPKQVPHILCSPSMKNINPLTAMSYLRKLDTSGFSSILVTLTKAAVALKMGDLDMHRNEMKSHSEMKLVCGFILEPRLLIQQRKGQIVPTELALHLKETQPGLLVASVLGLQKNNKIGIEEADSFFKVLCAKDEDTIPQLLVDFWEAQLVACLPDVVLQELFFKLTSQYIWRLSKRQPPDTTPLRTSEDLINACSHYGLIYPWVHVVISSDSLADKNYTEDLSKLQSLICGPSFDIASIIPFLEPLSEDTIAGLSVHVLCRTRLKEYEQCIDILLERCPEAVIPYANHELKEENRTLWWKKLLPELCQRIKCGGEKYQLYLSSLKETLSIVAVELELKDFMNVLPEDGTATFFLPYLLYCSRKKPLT
UniProt Q8WX93: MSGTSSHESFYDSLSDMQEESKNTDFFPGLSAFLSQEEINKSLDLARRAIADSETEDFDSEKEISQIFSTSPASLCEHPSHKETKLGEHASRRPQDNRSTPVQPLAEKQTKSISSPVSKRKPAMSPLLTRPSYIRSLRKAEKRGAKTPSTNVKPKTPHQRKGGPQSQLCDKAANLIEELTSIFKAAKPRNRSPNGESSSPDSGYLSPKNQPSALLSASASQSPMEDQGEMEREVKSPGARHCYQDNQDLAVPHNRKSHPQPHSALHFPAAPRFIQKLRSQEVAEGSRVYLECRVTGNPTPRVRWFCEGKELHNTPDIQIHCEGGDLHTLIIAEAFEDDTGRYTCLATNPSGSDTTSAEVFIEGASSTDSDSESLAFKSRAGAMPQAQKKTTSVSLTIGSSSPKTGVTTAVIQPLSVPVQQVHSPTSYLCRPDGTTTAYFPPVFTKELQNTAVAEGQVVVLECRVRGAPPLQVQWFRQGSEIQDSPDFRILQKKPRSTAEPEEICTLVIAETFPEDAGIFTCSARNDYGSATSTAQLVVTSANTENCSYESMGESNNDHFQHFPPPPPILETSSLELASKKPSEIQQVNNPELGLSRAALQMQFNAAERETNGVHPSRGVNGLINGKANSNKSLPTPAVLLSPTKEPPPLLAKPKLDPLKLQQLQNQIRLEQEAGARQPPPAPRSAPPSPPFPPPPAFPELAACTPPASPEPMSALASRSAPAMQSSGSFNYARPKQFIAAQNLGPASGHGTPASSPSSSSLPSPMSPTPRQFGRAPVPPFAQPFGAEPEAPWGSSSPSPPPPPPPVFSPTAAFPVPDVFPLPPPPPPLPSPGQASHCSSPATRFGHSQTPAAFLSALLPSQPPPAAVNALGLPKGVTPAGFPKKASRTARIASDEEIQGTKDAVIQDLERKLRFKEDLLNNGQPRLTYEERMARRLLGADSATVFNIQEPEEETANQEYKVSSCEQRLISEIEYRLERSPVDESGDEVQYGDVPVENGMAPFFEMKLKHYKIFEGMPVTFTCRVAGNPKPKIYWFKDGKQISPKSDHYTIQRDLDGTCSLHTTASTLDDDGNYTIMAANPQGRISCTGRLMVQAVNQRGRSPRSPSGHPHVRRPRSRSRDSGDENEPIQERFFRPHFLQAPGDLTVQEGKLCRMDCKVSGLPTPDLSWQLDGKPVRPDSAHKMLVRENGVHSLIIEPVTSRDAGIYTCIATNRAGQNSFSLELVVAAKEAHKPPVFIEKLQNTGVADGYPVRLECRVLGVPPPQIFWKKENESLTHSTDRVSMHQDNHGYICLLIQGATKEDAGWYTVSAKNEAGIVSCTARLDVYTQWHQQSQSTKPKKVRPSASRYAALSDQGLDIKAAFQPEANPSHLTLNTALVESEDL
UniProt Q92576, whole entry: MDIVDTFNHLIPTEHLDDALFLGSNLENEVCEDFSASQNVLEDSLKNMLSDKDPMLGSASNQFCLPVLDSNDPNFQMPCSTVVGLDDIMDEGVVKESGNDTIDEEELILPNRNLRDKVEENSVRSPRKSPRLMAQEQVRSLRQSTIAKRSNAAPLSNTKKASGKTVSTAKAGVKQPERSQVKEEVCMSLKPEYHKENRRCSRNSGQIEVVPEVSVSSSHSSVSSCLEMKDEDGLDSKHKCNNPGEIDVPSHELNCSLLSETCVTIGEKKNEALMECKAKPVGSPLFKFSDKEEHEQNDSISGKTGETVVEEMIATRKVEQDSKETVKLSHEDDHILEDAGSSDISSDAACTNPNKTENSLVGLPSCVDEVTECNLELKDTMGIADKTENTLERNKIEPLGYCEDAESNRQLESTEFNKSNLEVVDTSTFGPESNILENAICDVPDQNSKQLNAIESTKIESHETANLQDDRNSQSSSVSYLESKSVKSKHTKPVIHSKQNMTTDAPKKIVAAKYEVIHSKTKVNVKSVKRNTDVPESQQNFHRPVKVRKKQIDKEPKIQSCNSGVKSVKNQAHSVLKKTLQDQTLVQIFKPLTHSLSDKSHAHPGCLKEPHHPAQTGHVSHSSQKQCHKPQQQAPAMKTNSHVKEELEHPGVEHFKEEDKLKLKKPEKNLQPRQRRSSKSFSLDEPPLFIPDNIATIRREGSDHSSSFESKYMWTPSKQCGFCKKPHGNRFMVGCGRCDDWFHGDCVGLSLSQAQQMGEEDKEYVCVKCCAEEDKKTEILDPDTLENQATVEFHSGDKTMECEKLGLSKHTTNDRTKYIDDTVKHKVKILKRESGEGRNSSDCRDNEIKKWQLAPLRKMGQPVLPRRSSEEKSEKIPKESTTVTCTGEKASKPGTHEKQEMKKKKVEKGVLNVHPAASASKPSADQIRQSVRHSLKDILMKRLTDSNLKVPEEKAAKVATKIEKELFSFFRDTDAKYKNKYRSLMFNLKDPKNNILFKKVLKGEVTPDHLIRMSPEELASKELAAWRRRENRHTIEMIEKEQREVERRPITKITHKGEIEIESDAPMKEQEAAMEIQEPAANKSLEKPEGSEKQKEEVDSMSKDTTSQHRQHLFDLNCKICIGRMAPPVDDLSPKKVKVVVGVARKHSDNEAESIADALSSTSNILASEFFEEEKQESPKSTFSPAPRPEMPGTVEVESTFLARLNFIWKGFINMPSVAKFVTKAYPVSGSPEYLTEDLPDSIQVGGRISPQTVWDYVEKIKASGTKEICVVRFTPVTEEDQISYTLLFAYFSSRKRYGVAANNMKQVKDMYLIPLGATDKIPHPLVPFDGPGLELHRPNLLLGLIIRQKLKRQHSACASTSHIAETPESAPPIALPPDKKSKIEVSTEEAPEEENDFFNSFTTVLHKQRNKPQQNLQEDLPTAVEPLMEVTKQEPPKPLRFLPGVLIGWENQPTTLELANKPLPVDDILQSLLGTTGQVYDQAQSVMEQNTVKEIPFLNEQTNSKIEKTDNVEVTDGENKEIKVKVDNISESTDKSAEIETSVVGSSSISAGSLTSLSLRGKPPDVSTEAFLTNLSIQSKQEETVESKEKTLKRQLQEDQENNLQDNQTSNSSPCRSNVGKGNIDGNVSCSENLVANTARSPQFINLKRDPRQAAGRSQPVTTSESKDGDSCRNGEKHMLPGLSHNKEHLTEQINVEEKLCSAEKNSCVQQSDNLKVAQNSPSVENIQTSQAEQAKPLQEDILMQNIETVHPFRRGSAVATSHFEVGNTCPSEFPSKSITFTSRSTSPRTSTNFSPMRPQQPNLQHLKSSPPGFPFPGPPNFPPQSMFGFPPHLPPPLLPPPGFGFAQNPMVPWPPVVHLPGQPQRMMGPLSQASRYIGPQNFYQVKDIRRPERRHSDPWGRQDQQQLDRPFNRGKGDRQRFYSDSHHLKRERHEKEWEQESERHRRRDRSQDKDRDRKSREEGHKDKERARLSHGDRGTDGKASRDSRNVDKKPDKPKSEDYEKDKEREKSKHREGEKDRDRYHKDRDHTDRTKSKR

Compound in the first experiment: Nc1ncnc2c1ncn2[C@@H]1O[C@H](COP(=O)(O)OP(=O)(O)OP(=O)(O)O)[C@@H](O)[C@H]1O [adenosine triphosphate]
Kind of experiment: NP40-soluble protein abundance relative to vehicle (solubility fold change) (ratio); higher = more soluble protein in presence of ATP. The conditions noted are these: concentration: 0.5mM. In short, it runs like this:
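Across three independent experiments, values are fold changes against the detergent-processed vehicle for each replicate, based on vsn-normalised intensities. The samples were Jurkat crude lysate treated with eight concentrations (0.1 to 10 mM) for 10 min at room temperature and then 3 min at 37 °C. Lysate was solubilised with 0.8% NP40 and benzonase, ultracentrifuged, and the supernatant analysed by TMT-labelled LC-MS/MS.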
For the target UniProt Q969U7 and related entries, the NP40-soluble protein abundance was 1.04 ± 0.04.

PXDN (UniProt Q92626): the NP40-soluble protein abundance was 1.01 ± 0.077.

Turning to UniProt Q8TCD5 and related entries, the NP40-soluble protein abundance was 0.981 ± 0.081.

In the case of PNPLA2 (UniProt Q96AD5), the NP40-soluble protein abundance turned out to be 1.03 ± 0.034.

OSTF1 (UniProt Q92882): the NP40-soluble protein abundance amounted to 0.974 ± 0.026.

Consider MRPS31 (UniProt Q92665), for which the NP40-soluble protein abundance stood at 0.966 ± 0.075.

Turning to UniProt Q96B36 and related entries, the NP40-soluble protein abundance worked out at 0.773 ± 0.11.

In the case of UniProt Q8WU79 and related entries, the NP40-soluble protein abundance is 0.946 ± 0.053.

Take TBRG4 (UniProt Q969Z0): the NP40-soluble protein abundance turned out to be 1.02 ± 0.048.

Consider RPGR (UniProt Q92834), for which the NP40-soluble protein abundance was found to be 1.08 ± 0.07.

As to GTF2H4 (UniProt Q92759), the NP40-soluble protein abundance is 1.19 ± 0.11.

On to DNAJC9 (UniProt Q8WXX5), for which the NP40-soluble protein abundance is 0.977 ± 0.018.

Regarding UniProt Q96AQ6 and related entries, the NP40-soluble protein abundance came out at 0.975 ± 0.033.

C18orf32 (UniProt Q8TCD1): the NP40-soluble protein abundance was 0.831 ± 0.25.

In the case of NT5C3B (UniProt Q969T7), the NP40-soluble protein abundance is 1.05 ± 0.055.

As for NSUN6 (UniProt Q8TEA1), the NP40-soluble protein abundance is 1.04 ± 0.056.

Regarding UniProt Q8TD16-2|Q8TD16, the NP40-soluble protein abundance was found to be 1 ± 0.012.

In the case of PIGO (UniProt Q8TEQ8), the NP40-soluble protein abundance came out at 1.01 ± 0.032.

Regarding UniProt Q92833 and related entries, the NP40-soluble protein abundance was determined as 1.09 ± 0.22.

With RTN4IP1 (UniProt Q8WWV3), the NP40-soluble protein abundance amounted to 1.05 ± 0.048.

On to UniProt Q8WUY8 and related entries, for which the NP40-soluble protein abundance turned out to be 0.958 ± 0.18.

UniProt Q969F9 and related entries: the NP40-soluble protein abundance was 0.972 ± 0.036.

Take UniProt Q969M3 and related entries: the NP40-soluble protein abundance was determined as 0.94 ± 0.15.

For UniProt Q8TED0 and related entries, the NP40-soluble protein abundance amounted to 1.13 ± 0.063.

As to ARPC1A (UniProt Q92747), the NP40-soluble protein abundance was 1.01 ± 0.038.

Turning to UniProt Q8WYP5 and related entries, the NP40-soluble protein abundance amounted to 1.08 ± 0.027.

Turning to UniProt Q8TDY2 and related entries, the NP40-soluble protein abundance amounted to 1.05 ± 0.082.

On to UniProt Q96B23-2, for which the NP40-soluble protein abundance is 0.889 ± 0.07.

UniProt Q92804 and related entries: the NP40-soluble protein abundance was 0.969 ± 0.1.

In the case of NUP133 (UniProt Q8WUM0), the NP40-soluble protein abundance is 1.09 ± 0.069.

For UniProt Q8TCZ2 and related entries, the NP40-soluble protein abundance is 0.955 ± 0.054.

UniProt Q8TEB1 and related entries: the NP40-soluble protein abundance amounted to 1.01 ± 0.075.

As to ELMO1 (UniProt Q92556), the NP40-soluble protein abundance was 1.06 ± 0.041.

For the target UniProt Q8WX93 and related entries, the NP40-soluble protein abundance was determined as 1.02 ± 0.034.

On to GEMIN5 (UniProt Q8TEQ6), for which the NP40-soluble protein abundance was 1.02 ± 0.015.

Take UniProt Q96AT9 and related entries: the NP40-soluble protein abundance was found to be 1 ± 0.068.

Regarding PIEZO1 (UniProt Q92508), the NP40-soluble protein abundance was 0.995 ± 0.059.

Take UniProt Q92576 and related entries: the NP40-soluble protein abundance was 1.04 ± 0.055.

The same experiment, now with this note: concentration: 1mM.
As to UniProt Q969U7 and related entries, the NP40-soluble protein abundance is 1.02 ± 0.072.

With PXDN (UniProt Q92626), the NP40-soluble protein abundance came to 1.06 ± 0.1.

Take UniProt Q8TCD5 and related entries: the NP40-soluble protein abundance turned out to be 1 ± 0.021.

In the case of PNPLA2 (UniProt Q96AD5), the NP40-soluble protein abundance was found to be 1.04 ± 0.047.

Consider MRPS31 (UniProt Q92665), for which the NP40-soluble protein abundance amounted to 0.994 ± 0.058.

Regarding UniProt Q96B36 and related entries, the NP40-soluble protein abundance was found to be 0.861 ± 0.098.

In the case of UniProt Q8WU79 and related entries, the NP40-soluble protein abundance was 0.891 ± 0.067.

As to TBRG4 (UniProt Q969Z0), the NP40-soluble protein abundance came out at 0.981 ± 0.047.

RPGR (UniProt Q92834): the NP40-soluble protein abundance worked out at 1.03 ± 0.099.

Regarding GTF2H4 (UniProt Q92759), the NP40-soluble protein abundance came to 1.08 ± 0.072.

Consider DNAJC9 (UniProt Q8WXX5), for which the NP40-soluble protein abundance was found to be 1.04 ± 0.024.

In the case of UniProt Q96AQ6 and related entries, the NP40-soluble protein abundance is 0.939 ± 0.053.

As to PIGO (UniProt Q8TEQ8), the NP40-soluble protein abundance was 0.991 ± 0.035.

For the target UniProt Q92833 and related entries, the NP40-soluble protein abundance worked out at 1.33 ± 0.27.

UniProt Q8WUY8 and related entries: the NP40-soluble protein abundance amounted to 1.02 ± 0.085.

Regarding UniProt Q969F9 and related entries, the NP40-soluble protein abundance amounted to 1.07 ± 0.16.

Consider UniProt Q969M3 and related entries, for which the NP40-soluble protein abundance came to 0.981 ± 0.16.

UniProt Q8TED0 and related entries: the NP40-soluble protein abundance came to 1.18 ± 0.18.

Turning to UniProt Q8WYP5 and related entries, the NP40-soluble protein abundance came out at 1.13 ± 0.037.

UniProt Q8TDY2 and related entries: the NP40-soluble protein abundance was 1.04 ± 0.056.

For UniProt Q92804 and related entries, the NP40-soluble protein abundance was found to be 1.05 ± 0.14.

Regarding UniProt Q8TEB1 and related entries, the NP40-soluble protein abundance was 0.948 ± 0.093.

On to ELMO1 (UniProt Q92556), for which the NP40-soluble protein abundance was found to be 1.05 ± 0.05.

On to UniProt Q8WX93 and related entries, for which the NP40-soluble protein abundance worked out at 0.978 ± 0.024.

On to UniProt Q96AT9 and related entries, for which the NP40-soluble protein abundance is 1.06 ± 0.092.

As to PIEZO1 (UniProt Q92508), the NP40-soluble protein abundance was determined as 1.1 ± 0.12.

Regarding UniProt Q92576 and related entries, the NP40-soluble protein abundance came out at 1.05 ± 0.052.

The same experiment, now with this note: concentration: 2mM.
As to UniProt Q969U7 and related entries, the NP40-soluble protein abundance was found to be 1.01 ± 0.012.

As for PXDN (UniProt Q92626), the NP40-soluble protein abundance amounted to 1.03 ± 0.067.

As to UniProt Q8TCD5 and related entries, the NP40-soluble protein abundance came to 1.02 ± 0.04.

As for PNPLA2 (UniProt Q96AD5), the NP40-soluble protein abundance was found to be 1 ± 0.069.

Consider MRPS31 (UniProt Q92665), for which the NP40-soluble protein abundance amounted to 0.93 ± 0.066.

Take UniProt Q96B36 and related entries: the NP40-soluble protein abundance came out at 0.826 ± 0.085.

As to UniProt Q8WU79 and related entries, the NP40-soluble protein abundance came to 0.924 ± 0.024.

In the case of TBRG4 (UniProt Q969Z0), the NP40-soluble protein abundance was found to be 0.957 ± 0.015.

Consider RPGR (UniProt Q92834), for which the NP40-soluble protein abundance amounted to 1.08 ± 0.039.

GTF2H4 (UniProt Q92759): the NP40-soluble protein abundance worked out at 1.04 ± 0.035.

Take DNAJC9 (UniProt Q8WXX5): the NP40-soluble protein abundance turned out to be 1.13 ± 0.012.

In the case of UniProt Q96AQ6 and related entries, the NP40-soluble protein abundance is 0.927 ± 0.024.

In the case of PIGO (UniProt Q8TEQ8), the NP40-soluble protein abundance was found to be 1 ± 0.062.

As for UniProt Q92833 and related entries, the NP40-soluble protein abundance came out at 1.32 ± 0.34.

For the target UniProt Q8WUY8 and related entries, the NP40-soluble protein abundance amounted to 1.049 ± 0.0036.

In the case of UniProt Q969F9 and related entries, the NP40-soluble protein abundance is 1.11 ± 0.22.

Turning to UniProt Q969M3 and related entries, the NP40-soluble protein abundance amounted to 0.97 ± 0.19.

On to UniProt Q8TED0 and related entries, for which the NP40-soluble protein abundance was determined as 1.22 ± 0.11.

Turning to UniProt Q8WYP5 and related entries, the NP40-soluble protein abundance amounted to 1.16 ± 0.048.

On to UniProt Q8TDY2 and related entries, for which the NP40-soluble protein abundance is 1.02 ± 0.044.

On to UniProt Q92804 and related entries, for which the NP40-soluble protein abundance worked out at 1.07 ± 0.15.

Take UniProt Q8TEB1 and related entries: the NP40-soluble protein abundance came to 0.977 ± 0.06.

ELMO1 (UniProt Q92556): the NP40-soluble protein abundance was 1.04 ± 0.043.

For the target UniProt Q8WX93 and related entries, the NP40-soluble protein abundance stood at 0.966 ± 0.046.

Regarding UniProt Q96AT9 and related entries, the NP40-soluble protein abundance stood at 1.07 ± 0.047.

In the case of PIEZO1 (UniProt Q92508), the NP40-soluble protein abundance worked out at 1.09 ± 0.13.

For the target UniProt Q92576 and related entries, the NP40-soluble protein abundance was 1.07 ± 0.056.
